These results are taken from paper PMC4861344.

Amino acid sequences for entries named in this document (tags omitted).
UniProt Q9JIP4: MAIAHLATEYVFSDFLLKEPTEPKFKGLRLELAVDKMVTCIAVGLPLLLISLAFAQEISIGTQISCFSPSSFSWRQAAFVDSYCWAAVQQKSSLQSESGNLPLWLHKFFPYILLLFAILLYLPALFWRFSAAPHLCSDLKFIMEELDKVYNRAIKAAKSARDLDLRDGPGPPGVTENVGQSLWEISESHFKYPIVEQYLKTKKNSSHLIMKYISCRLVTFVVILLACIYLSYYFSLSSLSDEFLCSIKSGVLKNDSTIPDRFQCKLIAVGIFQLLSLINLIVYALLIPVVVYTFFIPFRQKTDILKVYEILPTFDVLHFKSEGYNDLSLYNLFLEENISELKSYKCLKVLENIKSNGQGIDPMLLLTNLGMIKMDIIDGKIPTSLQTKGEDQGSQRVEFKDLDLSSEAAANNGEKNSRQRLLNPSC

No constants are given. Whether binding was seen depends on the method and setting. In cells and extracts the contact can be indirect. Some binding calls cover weakened binding; strength is not graded here.

The test addresses T1, P2X7 receptor (mouse (endogenous in mouse long bone, MLO-Y4 and MOB-C cells)) (UniProt Q9Z1M0).
T1 sequence: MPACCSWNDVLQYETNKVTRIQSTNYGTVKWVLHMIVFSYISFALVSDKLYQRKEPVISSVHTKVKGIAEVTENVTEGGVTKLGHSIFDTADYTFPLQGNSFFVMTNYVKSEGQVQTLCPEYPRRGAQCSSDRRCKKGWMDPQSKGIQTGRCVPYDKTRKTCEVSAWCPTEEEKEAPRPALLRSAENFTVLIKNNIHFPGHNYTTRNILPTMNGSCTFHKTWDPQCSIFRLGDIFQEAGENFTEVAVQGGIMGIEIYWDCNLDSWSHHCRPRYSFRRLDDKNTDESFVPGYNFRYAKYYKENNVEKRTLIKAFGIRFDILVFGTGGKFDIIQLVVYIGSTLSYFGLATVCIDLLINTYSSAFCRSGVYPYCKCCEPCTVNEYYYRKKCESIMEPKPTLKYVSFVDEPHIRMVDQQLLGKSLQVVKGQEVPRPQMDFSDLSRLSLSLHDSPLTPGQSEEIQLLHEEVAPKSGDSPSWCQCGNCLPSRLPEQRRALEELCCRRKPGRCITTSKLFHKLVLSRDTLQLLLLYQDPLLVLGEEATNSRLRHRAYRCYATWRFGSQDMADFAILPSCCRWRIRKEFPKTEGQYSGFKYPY
In words: co-IP; lysates of long bone tissue, MLO-Y4 osteocytes and MOB-C osteoblasts, pre-cleared; P2X7R antibody (1 ug/ml) with Protein A agarose beads overnight at 4°C; five washes with 25 mM Tris HCl, 150 mM NaCl, 0.5% NP-40; blots with Panx1 and P2X7R antibodies; antibody omitted for negative controls.

pannexin 1 (from UniProt Q9JIP4 1-426): the binding result is given as “binds”.
